Experimental data taken from PubChem BioAssay AID248 (DTP/NCI, 2004).
The list shows only some results of the screen, not a fair sample: it is rich in T/C values a quarter to a half above the control, in often repeated tests (any T/C) and in doses without a T/C. Other doses and runs of a compound stand elsewhere. T/C gives the treated animals as a percentage of the vehicle group. Some doses have a count of surviving animals in place of a T/C: the source holds a T/C of zero for them, seemingly a mark for toxic or unscored doses. Some survivor counts are full or nearly so, which does not show that the dose was tolerated: survival well below the control is almost never listed, so the zero probably covers shortened survival too. Counts of survivors are from the toxicity check (mostly the fifth day) where no day follows; animals may have died later. Schedules are NCI's codes, read here as Q, the interval in days (D) or hours (H), X, the number of doses. Some entries were tested several times; their values stand side by side, smallest first. For survival time, this PubChem deposit counts one and a half times the control or more as active, and values a quarter to a half above the control carry no call in these data; other NCI protocols may use other cut-offs.

System: L1210 leukemia ip in BDF1 mice, survival T/C
Assay: NCI In Vivo Anticancer Drug Screen. Data for tumor model L1210 Leukemia (intraperitoneal) in B6D2F1 (BDF1) mice
Conditions: T/C endpoint: mean survival time, higher T/C = longer survival
[1] = dose: 400.0 mg/kg/injection, schedule: Q01DX009 (ip), vehicle: Klucel (hydroxypropylcellulose) (HPC)
[2] = dose: 50.0 mg/kg/injection, schedule: Q04DX003 (ip), vehicle: saline
[3] = dose: 300.0 mg/kg/injection, schedule: Q01DX001 (ip), vehicle: saline
[4] = dose: 400.0 mg/kg/injection, schedule: Q04DX003 (ip), vehicle: saline
[5] = dose: 400.0 mg/kg/injection, schedule: Q04DX003 (ip), vehicle: saline with Tween-80
[6] = dose: 200.0 mg/kg/injection, schedule: Q01DX009 (ip), vehicle: Klucel (hydroxypropylcellulose) (HPC)
[7] = dose: 400.0 mg/kg/injection, schedule: Q01DX009 (ip), vehicle: saline
[8] = dose: 400.0 mg/kg/injection, schedule: Q01DX001 (ip), vehicle: saline
[9] = dose: 100.0 mg/kg/injection, schedule: Q04DX002 (ip), vehicle: Klucel (hydroxypropylcellulose) (HPC)
[10] = dose: 200.0 mg/kg/injection, schedule: Q04DX002 (ip), vehicle: Klucel (hydroxypropylcellulose) (HPC)
[11] = dose: 400.0 mg/kg/injection, schedule: Q04DX002 (ip), vehicle: Klucel (hydroxypropylcellulose) (HPC)
[12] = dose: 200.0 mg/kg/injection, schedule: Q04DX003 (ip), vehicle: saline with Tween-80
[13] = dose: 200.0 mg/kg/injection, schedule: Q04DX002 (ip), vehicle: saline
[14] = dose: 50.0 mg/kg/injection, schedule: Q01DX009 (ip), vehicle: Klucel (hydroxypropylcellulose) (HPC)
[15] = dose: 400.0 mg/kg/injection, schedule: Q04DX002 (ip), vehicle: saline

## O=C(Nc1cccc(O)c1)Nc1ccc(Cl)cc1[N+](=O)[O-]
[1]
  survivor count: 2 of 6

## CNC(=O)CCN1CCN(CC/C=C2\c3ccccc3Sc3ccc(Cl)cc32)CC1
dose: 6.25 mg/kg/injection, schedule: Q03HX024 (ip), vehicle: saline
  survivor count: 3 of 6
dose: 6.25 mg/kg/injection, schedule: Q04DX003 (ip), vehicle: saline
  T/C: 130 % of control
dose: 12.5 mg/kg/injection, schedule: Q03HX024 (ip), vehicle: saline
  survivor count: 0 of 6
dose: 12.5 mg/kg/injection, schedule: Q04DX003 (ip), vehicle: saline
  T/C: 127 % of control
dose: 25.0 mg/kg/injection, schedule: Q03HX024 (ip), vehicle: saline
  survivor count: 0 of 6
dose: 25.0 mg/kg/injection, schedule: Q04DX003 (ip), vehicle: saline
  T/C: 136 % of control
dose: 33.0 mg/kg/injection, schedule: Q01DX009 (ip), vehicle: saline
  survivor count: 2 of 6
[2]
  T/C: 133 % of control
  survivor count: 3 of 6
dose: 66.0 mg/kg/injection, schedule: Q01DX009 (ip), vehicle: saline
  survivor count: 0 of 6
dose: 100.0 mg/kg/injection, schedule: Q04DX003 (ip), vehicle: saline
  survivor count: 1 of 6
dose: 200.0 mg/kg/injection, schedule: Q04DX003 (ip), vehicle: saline
  survivor count: 0 of 4
[3]
  survivor count: 0 of 6
[4]
  survivor count: 0 of 4

## COc1ccc(C(=O)c2no[n+]([O-])c2C(=O)c2ccc(OC)cc2)cc1
[5]
  survivor count: 6 of 6

## C[n+]1cccc(C(=O)NCCc2c[nH]c3ccccc23)c1
dose: 110.0 mg/kg/injection, schedule: Q01DX009 (ip), vehicle: saline with Tween-80
  survivor count: 6 of 6
dose: 170.0 mg/kg/injection, schedule: Q01DX009 (ip), vehicle: saline with Tween-80
  survivor count: 0 of 6
[3]
  survivor count: 2 of 6

## Cc1ccc(N2C(=O)CC(Sc3ccccc3N)C2=O)cc1Cl (stereo not drawn)
[6]
  survivor count: 3 of 6

## CCOC(=O)c1ccc(NC(=S)NC(=O)c2cccc([N+](=O)[O-])c2)cc1
dose: 100.0 mg/kg/injection, schedule: Q01DX001 (ip), vehicle: saline with Tween-80
  survivor count: 6 of 6
[7]
  survivor count: 1 of 3 and 4 of 6

## O=C(Nc1ccc2c(c1)OCO2)O/N=C\c1cccnc1
dose: 50.0 mg/kg/injection, schedule: Q01DX009 (ip), vehicle: saline with Tween-80
  survivor count: 6 of 6

## CCCCNP(=O)(OCC)OCC
[7]
  survivor count: 0 of 6
[4]
  survivor count: 2 of 6

## COc1cc2c(cc1OC)C(Cc1ccc(O)cc1)N(C)CC2 (stereo not drawn)
[8]
  survivor count: 2 of 4

## CCOC(=O)c1ccc(NC(=O)Nc2cccc(C(F)(F)F)c2)cc1
[1]
  survivor count: 6 of 6

## OCCCCN1CCCCC1
[8]
  survivor count: 1 of 4

## NC(=S)Nc1cccnc1
[9]
  survivor count: 1 of 3
[10]
  survivor count: 1 of 3
[11]
  survivor count: 0 of 3

## CN1CCC(c2ccccc2)(c2ccccc2)OC1
[12]
  survivor count: 3 of 6
[5]
  survivor count: 0 of 6

## CCC[CH2][Sn]1([CH2]CCC)[O]OC(c2ccc(C(=O)OCC)cc2)[O]1 (stereo not drawn)
dose: 12.5 mg/kg/injection, schedule: Q04DX002 (ip), vehicle: other
  survivor count: 0 of 3
dose: 25.0 mg/kg/injection, schedule: Q04DX002 (ip), vehicle: other
  survivor count: 0 of 3

## CC(C)CC(NC(=O)c1ccccc1)C(=O)O (stereo not drawn)
dose: 100.0 mg/kg/injection, schedule: Q01DX009 (ip), vehicle: saline with Tween-80
  survivor count: 6 of 6

## O=c1[nH]c2ccccc2nc1C(Cl)(Cl)Cl
[11]
  survivor count: 1 of 3

## Nc1cc(Cl)c2cccnc2c1O
[12]
  survivor count: 4 of 6
[3]
  survivor count: 1 of 6

## CC1=N/C(=C/c2ccccc2Cl)C(=O)O1
dose: 400.0 mg/kg/injection, schedule: Q04DX003 (ip), vehicle: Klucel (hydroxypropylcellulose) (HPC)
  survivor count: 3 of 6

## O=C(O)c1cccc(C(=O)O)n1
dose: 300.0 mg/kg/injection, schedule: Q01DX001 (ip), vehicle: acetone
  survivor count: 0 of 6

## Cc1nc(S(C)(=O)=O)nc(S(C)(=O)=O)c1Cl
dose: 25.0 mg/kg/injection, schedule: Q01DX001 (ip), vehicle: Klucel (hydroxypropylcellulose) (HPC)
  survivor count: 0 of 6
dose: 50.0 mg/kg/injection, schedule: Q01DX001 (ip), vehicle: Klucel (hydroxypropylcellulose) (HPC)
  survivor count: 0 of 6
dose: 100.0 mg/kg/injection, schedule: Q01DX001 (ip), vehicle: Klucel (hydroxypropylcellulose) (HPC)
  survivor count: 0 of 6
dose: 200.0 mg/kg/injection, schedule: Q01DX001 (ip), vehicle: Klucel (hydroxypropylcellulose) (HPC)
  survivor count: 0 of 6
dose: 400.0 mg/kg/injection, schedule: Q01DX001 (ip), vehicle: Klucel (hydroxypropylcellulose) (HPC)
  survivor count: 0 of 6

## CCCCC(=O)N1C(C)CCCC1C (stereo not drawn)
dose: 100.0 mg/kg/injection, schedule: Q04DX002 (ip), vehicle: saline
  survivor count: 3 of 3
[13]
  survivor count: 3 of 3

## C/C(CCC1=CC=CC1=O)=N\NC(N)=O
dose: 200.0 mg/kg/injection, schedule: Q01DX001 (ip), vehicle: other
  survivor count: 0 of 4
dose: 400.0 mg/kg/injection, schedule: Q01DX001 (ip), vehicle: other
  survivor count: 0 of 4

## COC1=CC(=O)C=C(OC(C)=O)C12Oc1c(Cl)c(C)c(Cl)c(O)c1C2=O (stereo not drawn)
dose: 100.0 mg/kg/injection, schedule: Q04DX002 (ip), vehicle: saline with Tween-80
  survivor count: 0 of 3
dose: 200.0 mg/kg/injection, schedule: Q04DX002 (ip), vehicle: saline with Tween-80
  survivor count: 0 of 3
dose: 400.0 mg/kg/injection, schedule: Q04DX002 (ip), vehicle: saline with Tween-80
  survivor count: 0 of 3

## CCOC(=O)Nc1cc2c(c(N)n1)N=C(CN(C)c1ccccc1)CN2
dose: 12.5 mg/kg/injection, schedule: Q01DX009 (ip), vehicle: Klucel (hydroxypropylcellulose) (HPC)
  T/C: 127 % of control
dose: 25.0 mg/kg/injection, schedule: Q01DX009 (ip), vehicle: Klucel (hydroxypropylcellulose) (HPC)
  T/C: 126 and 139 % of control
[14]
  T/C: 136 % of control
  survivor count: 6 of 6
dose: 50.0 mg/kg/injection, schedule: Q04DX002 (ip), vehicle: Klucel (hydroxypropylcellulose) (HPC)
  T/C: 127 % of control
dose: 100.0 mg/kg/injection, schedule: Q01DX009 (ip), vehicle: Klucel (hydroxypropylcellulose) (HPC)
  survivor count: 0 of 6
[9]
  T/C: 144 % of control
[6]
  survivor count: 0 of 6
[10]
  survivor count: 2 of 3

## O=C1Cc2ccccc2O1
dose: 200.0 mg/kg/injection, schedule: Q01DX009 (ip), vehicle: saline with Tween-80
  T/C: 135 % of control

## CCOC(=O)c1ccc(C(=O)OCC)c(C#N)n1
[1]
  survivor count: 6 of 6

## CC(=O)c1ccc2c3ccccc3n(CCCN3CCC(O)CC3)c2c1
[15]
  survivor count: 0 of 3

## O=NN1CCCCC1C(=O)O (stereo not drawn)
[8]
  survivor count: 1 of 4

## CC(C)OC(=O)Oc1c(Cl)c(Cl)c(Cl)c(Cl)c1Cl
[1]
  survivor count: 2 of 3

## O=C(O)c1cc(F)ccc1F
[11]
  survivor count: 0 of 3

## C(CCSC1=NCCN1)CSC1=NCCN1
[13]
  survivor count: 1 of 3
[15]
  survivor count: 0 of 3

## O=C(NC(Cc1ccccc1)C(=O)CBr)OCc1ccccc1 (stereo not drawn)
dose: 200.0 mg/kg/injection, schedule: Q01DX001 (ip), vehicle: saline with Tween-80
  survivor count: 0 of 6
dose: 400.0 mg/kg/injection, schedule: Q01DX001 (ip), vehicle: saline with Tween-80
  survivor count: 2 of 6

## CC(=O)Nc1ccc(Cc2ccc(Br)cc2)cc1
[8]
  survivor count: 3 of 6
